Experimental findings from the supplement of paper PMC12819154, “High-throughput peptide-centric local stability assay extends protein–ligand identification to membrane proteins, tissues and bacteria” (Nature Structural & Molecular Biology, 2025) are described below.

Sequences of proteins named here, by UniProt entry; tags and fusion partners are left off. A change or cut given only in a name is not applied to a line headed by its entry.
UniProt Q3UZP4: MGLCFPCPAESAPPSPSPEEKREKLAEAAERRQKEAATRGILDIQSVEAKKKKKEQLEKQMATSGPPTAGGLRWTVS
UniProt Q3UQ44: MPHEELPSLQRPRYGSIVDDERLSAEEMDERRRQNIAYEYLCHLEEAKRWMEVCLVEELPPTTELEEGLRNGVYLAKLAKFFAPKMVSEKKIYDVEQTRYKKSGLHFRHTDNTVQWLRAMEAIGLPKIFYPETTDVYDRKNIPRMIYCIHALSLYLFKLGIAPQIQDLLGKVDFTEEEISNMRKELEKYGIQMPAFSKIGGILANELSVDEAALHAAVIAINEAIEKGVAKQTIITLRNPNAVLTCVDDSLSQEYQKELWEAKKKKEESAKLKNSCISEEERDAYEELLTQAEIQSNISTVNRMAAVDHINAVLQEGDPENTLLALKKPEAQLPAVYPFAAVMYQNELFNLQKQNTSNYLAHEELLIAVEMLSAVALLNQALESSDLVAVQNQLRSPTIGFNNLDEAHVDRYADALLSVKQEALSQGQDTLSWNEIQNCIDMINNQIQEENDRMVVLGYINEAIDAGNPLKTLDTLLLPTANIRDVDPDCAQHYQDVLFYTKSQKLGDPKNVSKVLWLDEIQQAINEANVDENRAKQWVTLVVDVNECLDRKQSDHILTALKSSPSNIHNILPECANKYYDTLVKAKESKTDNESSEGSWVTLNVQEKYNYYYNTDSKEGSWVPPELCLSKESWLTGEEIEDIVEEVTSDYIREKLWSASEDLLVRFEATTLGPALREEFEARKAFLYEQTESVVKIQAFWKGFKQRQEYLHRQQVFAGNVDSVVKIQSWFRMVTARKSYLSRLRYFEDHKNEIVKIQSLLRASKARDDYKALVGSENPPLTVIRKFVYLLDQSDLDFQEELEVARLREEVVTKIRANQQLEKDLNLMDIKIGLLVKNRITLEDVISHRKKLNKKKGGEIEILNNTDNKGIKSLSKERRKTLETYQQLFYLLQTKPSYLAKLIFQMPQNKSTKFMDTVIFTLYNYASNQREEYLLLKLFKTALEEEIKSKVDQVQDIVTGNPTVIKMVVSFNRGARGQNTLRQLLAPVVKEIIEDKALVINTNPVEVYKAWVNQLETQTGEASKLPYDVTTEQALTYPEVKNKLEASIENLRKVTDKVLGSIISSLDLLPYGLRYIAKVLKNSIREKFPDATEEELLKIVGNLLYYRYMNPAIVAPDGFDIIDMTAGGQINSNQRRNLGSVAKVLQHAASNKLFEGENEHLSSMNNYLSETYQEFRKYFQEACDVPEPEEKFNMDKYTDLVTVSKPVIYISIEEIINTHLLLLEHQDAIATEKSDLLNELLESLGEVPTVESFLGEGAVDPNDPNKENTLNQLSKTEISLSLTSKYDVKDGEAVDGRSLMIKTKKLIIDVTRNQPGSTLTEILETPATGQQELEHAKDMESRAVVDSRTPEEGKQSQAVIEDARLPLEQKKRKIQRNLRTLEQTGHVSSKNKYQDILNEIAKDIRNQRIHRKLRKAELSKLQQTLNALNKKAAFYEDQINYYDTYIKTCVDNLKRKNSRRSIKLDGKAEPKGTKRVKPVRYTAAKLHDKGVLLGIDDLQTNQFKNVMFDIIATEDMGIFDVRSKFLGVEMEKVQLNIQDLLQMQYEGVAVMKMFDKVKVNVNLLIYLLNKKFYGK
UniProt Q59J78: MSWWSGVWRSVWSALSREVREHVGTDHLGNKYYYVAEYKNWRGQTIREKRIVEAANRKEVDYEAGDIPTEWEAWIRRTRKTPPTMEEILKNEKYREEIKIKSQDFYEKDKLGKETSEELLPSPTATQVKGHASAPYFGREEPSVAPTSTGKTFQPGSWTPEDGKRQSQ
UniProt Q3UD01: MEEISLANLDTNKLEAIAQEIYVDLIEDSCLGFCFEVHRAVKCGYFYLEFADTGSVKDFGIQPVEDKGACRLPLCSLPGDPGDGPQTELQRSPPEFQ
UniProt Q3U3E2: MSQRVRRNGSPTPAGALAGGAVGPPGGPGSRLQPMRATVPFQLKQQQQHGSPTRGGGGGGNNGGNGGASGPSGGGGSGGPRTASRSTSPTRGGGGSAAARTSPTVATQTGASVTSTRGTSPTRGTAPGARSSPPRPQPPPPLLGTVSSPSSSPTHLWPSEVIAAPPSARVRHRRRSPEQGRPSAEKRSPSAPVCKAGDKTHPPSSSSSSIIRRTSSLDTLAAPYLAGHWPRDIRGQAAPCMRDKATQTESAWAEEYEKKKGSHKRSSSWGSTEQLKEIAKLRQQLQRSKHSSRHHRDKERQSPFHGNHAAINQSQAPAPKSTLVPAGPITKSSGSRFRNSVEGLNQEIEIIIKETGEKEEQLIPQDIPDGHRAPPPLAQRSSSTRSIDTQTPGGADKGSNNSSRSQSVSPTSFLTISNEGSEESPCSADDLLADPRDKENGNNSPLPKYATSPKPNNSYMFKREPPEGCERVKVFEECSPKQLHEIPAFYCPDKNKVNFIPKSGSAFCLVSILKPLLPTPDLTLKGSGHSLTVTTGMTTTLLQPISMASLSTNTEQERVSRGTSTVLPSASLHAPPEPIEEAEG
UniProt Q3UYV9: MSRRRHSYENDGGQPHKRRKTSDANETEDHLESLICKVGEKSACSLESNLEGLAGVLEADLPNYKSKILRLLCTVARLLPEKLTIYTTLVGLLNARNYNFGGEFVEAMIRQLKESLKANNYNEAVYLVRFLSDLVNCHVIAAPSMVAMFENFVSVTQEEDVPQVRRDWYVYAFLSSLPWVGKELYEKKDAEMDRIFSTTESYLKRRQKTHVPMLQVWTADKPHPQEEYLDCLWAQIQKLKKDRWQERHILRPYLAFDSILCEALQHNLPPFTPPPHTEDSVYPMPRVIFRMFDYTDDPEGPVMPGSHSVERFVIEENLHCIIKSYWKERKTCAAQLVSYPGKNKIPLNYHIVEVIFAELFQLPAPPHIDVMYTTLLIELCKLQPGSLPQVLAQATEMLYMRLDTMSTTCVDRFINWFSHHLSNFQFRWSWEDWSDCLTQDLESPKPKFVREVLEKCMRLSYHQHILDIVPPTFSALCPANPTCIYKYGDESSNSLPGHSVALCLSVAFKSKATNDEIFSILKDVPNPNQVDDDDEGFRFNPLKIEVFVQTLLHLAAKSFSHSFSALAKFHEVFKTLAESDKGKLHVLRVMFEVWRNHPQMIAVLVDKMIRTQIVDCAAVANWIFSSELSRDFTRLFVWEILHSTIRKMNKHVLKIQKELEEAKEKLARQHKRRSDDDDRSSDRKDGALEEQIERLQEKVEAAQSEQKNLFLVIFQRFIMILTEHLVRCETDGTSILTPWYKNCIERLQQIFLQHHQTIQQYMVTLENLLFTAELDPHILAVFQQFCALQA
UniProt Q3U5F4: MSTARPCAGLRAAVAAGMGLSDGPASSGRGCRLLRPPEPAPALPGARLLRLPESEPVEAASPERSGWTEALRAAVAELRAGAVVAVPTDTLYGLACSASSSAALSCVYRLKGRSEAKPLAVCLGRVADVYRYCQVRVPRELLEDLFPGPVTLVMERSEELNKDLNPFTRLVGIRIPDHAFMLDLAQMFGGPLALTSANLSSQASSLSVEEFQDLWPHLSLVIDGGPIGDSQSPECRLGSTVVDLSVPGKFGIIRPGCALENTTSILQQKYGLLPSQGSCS
UniProt Q3UH68: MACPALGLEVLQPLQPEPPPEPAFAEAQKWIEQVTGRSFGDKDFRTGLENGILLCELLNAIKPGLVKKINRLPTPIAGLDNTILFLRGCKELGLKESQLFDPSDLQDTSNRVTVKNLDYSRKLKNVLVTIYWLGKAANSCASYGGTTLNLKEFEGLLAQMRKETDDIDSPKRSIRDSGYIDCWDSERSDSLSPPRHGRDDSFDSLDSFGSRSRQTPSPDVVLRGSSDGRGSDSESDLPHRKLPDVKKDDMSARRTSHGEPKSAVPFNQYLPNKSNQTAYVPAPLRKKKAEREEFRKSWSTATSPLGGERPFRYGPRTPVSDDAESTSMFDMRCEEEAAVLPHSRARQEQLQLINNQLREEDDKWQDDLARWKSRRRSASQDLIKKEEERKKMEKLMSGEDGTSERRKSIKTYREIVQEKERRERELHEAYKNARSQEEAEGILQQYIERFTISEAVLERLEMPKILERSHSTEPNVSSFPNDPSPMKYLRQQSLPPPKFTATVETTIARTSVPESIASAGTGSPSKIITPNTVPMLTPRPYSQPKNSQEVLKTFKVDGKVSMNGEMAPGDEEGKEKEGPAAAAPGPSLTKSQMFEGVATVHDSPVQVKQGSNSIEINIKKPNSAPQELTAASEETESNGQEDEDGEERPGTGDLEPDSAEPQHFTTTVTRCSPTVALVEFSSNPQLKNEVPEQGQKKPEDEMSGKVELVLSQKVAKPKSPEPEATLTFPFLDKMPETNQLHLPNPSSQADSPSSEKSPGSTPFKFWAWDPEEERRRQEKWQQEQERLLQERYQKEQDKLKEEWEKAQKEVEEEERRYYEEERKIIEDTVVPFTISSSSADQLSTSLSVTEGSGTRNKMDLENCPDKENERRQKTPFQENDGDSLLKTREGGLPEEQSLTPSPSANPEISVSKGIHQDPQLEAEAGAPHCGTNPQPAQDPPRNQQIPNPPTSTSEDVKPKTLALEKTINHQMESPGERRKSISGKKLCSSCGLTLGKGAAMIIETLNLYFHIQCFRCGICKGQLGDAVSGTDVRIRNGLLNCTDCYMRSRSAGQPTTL
UniProt Q3U6N9: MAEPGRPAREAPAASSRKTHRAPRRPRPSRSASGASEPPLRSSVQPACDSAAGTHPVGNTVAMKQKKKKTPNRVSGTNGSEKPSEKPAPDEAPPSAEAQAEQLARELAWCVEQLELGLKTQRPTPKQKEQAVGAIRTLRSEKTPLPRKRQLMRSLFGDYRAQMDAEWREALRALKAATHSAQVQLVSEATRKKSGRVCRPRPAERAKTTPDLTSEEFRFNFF
UniProt Q569Z6: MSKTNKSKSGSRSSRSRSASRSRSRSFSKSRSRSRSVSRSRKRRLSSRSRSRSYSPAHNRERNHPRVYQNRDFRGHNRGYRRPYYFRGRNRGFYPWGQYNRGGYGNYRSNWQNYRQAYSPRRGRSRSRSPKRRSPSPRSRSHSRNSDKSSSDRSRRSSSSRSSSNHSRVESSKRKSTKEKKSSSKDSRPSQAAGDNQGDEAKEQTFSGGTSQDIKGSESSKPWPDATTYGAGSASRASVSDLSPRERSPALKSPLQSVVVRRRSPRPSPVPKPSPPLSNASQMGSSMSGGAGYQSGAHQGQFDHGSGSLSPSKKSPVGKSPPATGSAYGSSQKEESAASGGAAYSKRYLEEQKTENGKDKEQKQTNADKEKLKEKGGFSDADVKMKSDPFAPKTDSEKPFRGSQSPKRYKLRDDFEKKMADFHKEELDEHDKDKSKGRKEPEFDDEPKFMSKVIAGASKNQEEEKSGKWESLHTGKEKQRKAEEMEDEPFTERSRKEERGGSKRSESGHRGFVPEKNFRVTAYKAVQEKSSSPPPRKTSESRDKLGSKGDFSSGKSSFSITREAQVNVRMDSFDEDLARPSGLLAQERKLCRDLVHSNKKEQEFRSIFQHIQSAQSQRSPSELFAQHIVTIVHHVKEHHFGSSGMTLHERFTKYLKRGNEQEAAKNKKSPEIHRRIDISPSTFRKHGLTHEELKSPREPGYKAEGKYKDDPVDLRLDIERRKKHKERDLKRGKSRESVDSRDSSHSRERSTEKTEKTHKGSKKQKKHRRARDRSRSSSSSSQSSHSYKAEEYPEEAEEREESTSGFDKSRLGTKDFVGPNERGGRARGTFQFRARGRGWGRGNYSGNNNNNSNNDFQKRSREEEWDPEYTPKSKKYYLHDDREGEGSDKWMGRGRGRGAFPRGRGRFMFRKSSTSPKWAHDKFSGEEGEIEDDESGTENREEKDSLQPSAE
UniProt Q3ULF4: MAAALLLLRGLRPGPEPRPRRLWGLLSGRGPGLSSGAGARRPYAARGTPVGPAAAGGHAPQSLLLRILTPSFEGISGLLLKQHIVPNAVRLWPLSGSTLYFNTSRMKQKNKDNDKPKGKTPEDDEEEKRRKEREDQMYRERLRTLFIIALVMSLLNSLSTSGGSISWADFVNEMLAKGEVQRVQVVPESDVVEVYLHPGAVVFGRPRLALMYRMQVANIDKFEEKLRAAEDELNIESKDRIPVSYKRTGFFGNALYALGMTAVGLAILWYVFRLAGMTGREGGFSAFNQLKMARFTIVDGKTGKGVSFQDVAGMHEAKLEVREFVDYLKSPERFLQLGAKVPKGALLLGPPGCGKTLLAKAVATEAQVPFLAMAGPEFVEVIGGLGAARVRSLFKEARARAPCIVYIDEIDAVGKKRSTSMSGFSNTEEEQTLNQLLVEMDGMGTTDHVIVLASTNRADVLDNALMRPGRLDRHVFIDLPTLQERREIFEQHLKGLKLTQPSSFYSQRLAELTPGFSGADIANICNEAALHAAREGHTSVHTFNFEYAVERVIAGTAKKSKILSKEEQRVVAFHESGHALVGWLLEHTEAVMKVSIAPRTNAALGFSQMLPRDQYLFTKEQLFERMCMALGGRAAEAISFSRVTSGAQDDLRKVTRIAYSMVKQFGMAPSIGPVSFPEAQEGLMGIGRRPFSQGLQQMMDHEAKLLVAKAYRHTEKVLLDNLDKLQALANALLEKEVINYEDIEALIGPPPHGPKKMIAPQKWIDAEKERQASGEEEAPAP

Some of the results follow. Most entries show no effect beyond the scatter of the controls.

Compound in the assay: CN[C@@H]1C[C@H]2O[C@@](C)([C@@H]1OC)n1c3ccccc3c3c4c(c5c6ccccc6n2c5c31)C(=O)NC4 [staurosporine]
The assay is described as follows: log2 fold change of tryptic peptide abundance, ligand vs vehicle (limited proteolysis) (log2 ratio); higher = more trypsin-susceptible (destabilized). The note with it: ligand concentration: 20 uM; sample: mouse liver crude lysate; replicate design: treated separately.
As to “UniProt Q3UEI1 (peptide sequence: VREPVDSGVAPVSPLGGGVILRR, peptide start residue: 16)”, the log2 fold change is -0.426.

Turning to “UniProt Q3UCQ1 (peptide sequence: VKVEPVPAISPATLGAASR, peptide start residue: 517)”, the log2 fold change was 0.45. In the case of “UniProt Q3UZP4 (peptide sequence: GILDIQSVEAK, peptide start residue: 40)”, the log2 fold change was -0.135.

“UniProt Q5DU37 (peptide sequence: VLSEAQWR, peptide start residue: 722)”: the log2 fold change is -0.283.

In the case of “UniProt Q5DTJ9 (peptide sequence: NEAGIVSCTAR, peptide start residue: 1337)”, the log2 fold change was -0.258. As for “UniProt Q3UQ44 (peptide sequence: VNVNLLIYLLNKK, peptide start residue: 1559)”, the log2 fold change is 0.823. For the target “UniProt Q4VA53 (peptide sequence: KAPVTDPEEKLGMDDLTK, peptide start residue: 1217)”, the log2 fold change was 0.493. To “UniProt Q59J78 (peptide sequence: SQDFYEK, peptide start residue: 102)” belongs 0.472; to “UniProt Q3V3R4 (peptide sequence: FSIAILGHYNR, peptide start residue: 305)”, 0.357; to “UniProt Q3UD01 (peptide sequence: DFGIQPVEDKGACR, peptide start residue: 58)”, -0.201. Regarding “UniProt Q4VBD9 (peptide sequence: HVLQVHEGGGER, peptide start residue: 393)”, the log2 fold change was found to be 1.1. For the target “UniProt Q3U3E2 (peptide sequence: GQAAPCMR, peptide start residue: 235)”, the log2 fold change came to 0.576. Turning to “UniProt Q3UYV9 (peptide sequence: ATNDEIFSILK, peptide start residue: 512)”, the log2 fold change amounted to 0.285. On to “UniProt Q3ULA2 (peptide sequence: LANGTSSMIVPK, peptide start residue: 111)”, for which the log2 fold change came out at 0.176.

For the target “UniProt Q3UGF1 (peptide sequence: IHLQYAK, peptide start residue: 897)”, the log2 fold change is -0.401. Turning to “UniProt Q3USZ8 (peptide sequence: LLDFLNVK, peptide start residue: 82)”, the log2 fold change was found to be 0.0711. “UniProt Q3UXL4 (peptide sequence: VGQLQQALR, peptide start residue: 31)”: the log2 fold change was -0.285. For the target “UniProt Q3U5F4 (peptide sequence: SGWTEALR, peptide start residue: 65)”, the log2 fold change is -0.101. “UniProt Q3UIA2 (peptide sequence: MKQLANQTVGR, peptide start residue: 8)”: the log2 fold change is -0.463. On to “UniProt Q3UY34 (peptide sequence: EAATPAWGLEQRPGAAERPEAGAADK, peptide start residue: 29)”, for which the log2 fold change was -0.149. To “UniProt Q3UXZ9 (peptide sequence: VTEALSASFNHKK, peptide start residue: 746)” belongs -0.492. “UniProt Q3UVG3 (peptide sequence: IATHGLCR, peptide start residue: 744)”: the log2 fold change was -0.476. To “UniProt Q3UH68 (peptide sequence: FTISEAVLER, peptide start residue: 450)” belongs -0.327. Consider “UniProt Q3U6N9 (peptide sequence: AATHSAQVQLVSEATRK, peptide start residue: 176)”, for which the log2 fold change is 0.183. Turning to “UniProt Q569L8 (peptide sequence: EREEIQALK, peptide start residue: 991)”, the log2 fold change is -0.147. Consider “UniProt Q569Z6 (peptide sequence: TDSEKPFR, peptide start residue: 394)”, for which the log2 fold change is -0.156. For the target “UniProt Q3UQI9 (peptide sequence: SVSEDSPLGYSHTEGNSR, peptide start residue: 308)”, the log2 fold change is -0.34. The same measure for “UniProt Q3ULF4 (peptide sequence: EGGFSAFNQLK, peptide start residue: 281)”: 0.41; for “UniProt Q5DU05 (peptide sequence: TEQQAALQR, peptide start residue: 677)”: -0.676. The same measure for “UniProt Q3UHH1 (peptide sequence: AAAELALSCLPHAHALNPNEIQR, peptide start residue: 1360)”: -0.267. To “UniProt Q3UBX0 (peptide sequence: SSGSHLEAK, peptide start residue: 207)” belongs 0.34.
